# Experimental data: PubChem BioAssay AID2417 (National Center for Advancing Translational Sciences (NCATS), 2010)
# Hit rate of the full screen: of about 140,000 compounds, about 4,300 (3.1%) were called active. The inconclusive results got no clear call from the source; some entries with a clear call stand among them for comparison.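 How the source made its calls: active means readout at or below -70, meaning at least 70% loss of cells showing the perinucleolar compartment, a nuclear body marking cancer cells; inconclusive means readout between -30 and a set limit; inactive means the rest.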
# Test: High Content Assay for Compounds that inhibit the Assembly of the Perinucleolar Compartment;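 further: plate controls were DMSO wells for no effect and camptothecin positive control wells for full effect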
# Conditions: PC3M PTB-GFP, PNC prevalence imaging, 16 h; at 10 µM; hits give low values
# How it was run: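 Read-out is percentage of cells bearing a perinucleolar compartment, from automated 20x imaging of fixed, Hoechst-stained PC3M PTB-GFP cells. Cells were seeded 4 h, then exposed 16 h to compound (23 nl of library stock) in duplicate plates.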
row,Structure (SMILES),"activity change (PNC), negative = inhibition"
1,NNC(=O)c1cc2c(s1)CCCCCC2,inactive: -22.9%
2,CC(C)Oc1cccc(C(=O)NC(=S)NCc2cccnc2)c1,inactive: 6.2%
3,COCCCn1c(SCC(=O)NCc2ccco2)nc2sc3c(c2c1=O)CCC3,inactive: 1.41%
4,N=c1sc2ccccc2n1-c1ccccc1,inconclusive: -31.1%
5,C=CCc1cc(C(=O)N2CCCCC2)ccc1O,active: -81.4%
6,CCCc1nc2ccccc2c(C(=O)OC2CCOC2=O)c1CC (centres undefined),inconclusive: -36.5%
7,COc1cccc(NC(=O)CCc2nc(-c3ccccc3F)no2)c1,inactive: -21%
8,Cc1cc(C)cc(NC(=O)CSc2nnc(Cc3cccn3C)n2-c2ccc(F)cc2)c1,inconclusive: -39.2%
9,Nc1c(C(=O)Nc2ccc(Cl)cc2)oc2ccccc12,inconclusive: -41%
10,C=CCn1c(SCC(=O)Nc2ccc3c(c2)OCCO3)nnc1-c1ccccn1,active: -80.6%
11,COC(=O)c1ccc(OC(=O)c2ccccn2)cc1,inactive: -1.82%
12,COc1ccc(NC(=S)NC(NC(=O)c2cccc(Cl)c2)C(Cl)(Cl)Cl)c([N+](=O)[O-])c1 (centres undefined),inactive: 12.9%
13,C/C(=N\NC(=O)CNc1cccc2ccccc12)c1ccc(Br)s1,inconclusive: -64.9%
14,COc1ccc(Nc2cc(C(=O)NCCCN3CCN(C)CC3)c3ccccc3n2)cc1OC,inconclusive: -48%
15,O=C1CN(S(=O)(=O)c2ccccc2)CC(=O)N1CCc1ccccc1,inconclusive: -32.9%
16,COc1cc(-c2nnc3n2N=C(c2ccccc2)CS3)cc(OC)c1OC,inconclusive: -70.3%
17,OC(COc1ccc(OCc2ccccc2)cc1)CN1CCCCC1 (centres undefined),inconclusive: -67.5%
18,CCC(=O)Nc1ccc(-c2nnc(SCC(=O)Nc3nccs3)n2C)cc1,inconclusive: -40%
19,CN1CCN(C(=O)C23CC4CC(CC(C4)C2)C3)CC1,inconclusive: -56.1%
20,COc1ccc(C=O)cc1COc1ccc(F)cc1F,inactive: 15.8%

# In the list so far, these have an aryl methoxy group.
row,Structure (SMILES),"activity change (PNC), negative = inhibition"
7,COc1cccc(NC(=O)CCc2nc(-c3ccccc3F)no2)c1,inactive: -21%
12,COc1ccc(NC(=S)NC(NC(=O)c2cccc(Cl)c2)C(Cl)(Cl)Cl)c([N+](=O)[O-])c1 (centres undefined),inactive: 12.9%
14,COc1ccc(Nc2cc(C(=O)NCCCN3CCN(C)CC3)c3ccccc3n2)cc1OC,inconclusive: -48%
16,COc1cc(-c2nnc3n2N=C(c2ccccc2)CS3)cc(OC)c1OC,inconclusive: -70.3%
20,COc1ccc(C=O)cc1COc1ccc(F)cc1F,inactive: 15.8%

# Laid out differently: entries from further up.
row | Structure (SMILES) | activity change (PNC), negative = inhibition
7 | COc1cccc(NC(=O)CCc2nc(-c3ccccc3F)no2)c1 | inactive: -21%
13 | C/C(=N\NC(=O)CNc1cccc2ccccc12)c1ccc(Br)s1 | inconclusive: -64.9%

# Next part

row,Structure (SMILES),"activity change (PNC), negative = inhibition"
1,O=C(CN1CCN(c2ccccn2)CC1)Nc1ccc(Oc2ccccc2)cc1,inactive: -27%
2,Cc1cc(=O)oc2cc(OCc3ccc(C(=O)N4CCN(c5ccccc5)CC4)cc3)ccc12,inactive: 16.2%
3,Cc1ccc(S(=O)(=O)N2CCC(C(=O)N[C@H](C(=O)N3CCN(C)CC3)C(C)C)CC2)cc1,inconclusive: -68.9%
4,O=[N+]([O-])c1ccc(/C=N/n2c(-c3cccnc3)n[nH]c2=S)cc1,inactive: -12.9%
5,O=C(C(Cc1ccccc1)N1C(=O)c2ccccc2C1=O)N1c2ccccc2CCc2ccccc21 (centres undefined),inactive: 70.2%
6,Cc1cccc(Nc2nc(NCc3ccco3)nc(N3CCOCC3)n2)c1,inconclusive: -57.5%
7,c1ccc(-c2csc3ncn4nnnc4c23)cc1,inconclusive: -34.8%
8,O=C1C2CC=CCC2C(=O)N1c1n[nH]c(-c2ccccc2)n1 (centres undefined),inconclusive: -32.9%
9,COc1nc(N(CC(N)=O)S(=O)(=O)c2ccccc2)nc(C)c1Cl,inconclusive: -36.8%
10,c1coc(-c2nnc3n2C2(CCCC2)Cc2ccccc2-3)c1,inactive: -1.53%
11,Cc1ccc(O)c(NC(=O)CCC2CCCCC2)c1,inconclusive: -60.9%
12,CCSc1nc2n(n1)C(c1cccc(F)c1)C1=C(CCCC1=O)N2 (centres undefined),inconclusive: -48.9%
13,Cc1ccc(N(CC(O)Cn2nc(C)cc2C)S(=O)(=O)c2ccc3ccccc3c2)cc1 (centres undefined),inconclusive: -61.2%
14,Cc1c(C(=O)N2CCOCC2)sc2ncnc(N3CCc4ccccc4C3)c12,inactive: 3.99%
15,CCOc1ccc(OCc2ccc(C(=O)Nc3cccc(C)n3)o2)cc1,inconclusive: -62.4%
16,COc1ccc(NS(=O)(=O)c2ccc3oc(SCc4ccc(F)cc4)nc3c2)cc1,inconclusive: -61.8%
17,CC(C)COC(=O)n1ccc(C(=O)N2CCCCC2)n1,inactive: -23.8%
18,O=C(NCc1ccco1)c1ccc2c(=O)n(Cc3ccco3)c(SCC(=O)N3CCCC3)nc2c1,inconclusive: -39.9%
19,CCOCCn1c(=NC(=O)c2cc3ccccc3oc2=O)sc2cc(S(N)(=O)=O)ccc21,inactive: 121%
20,CSc1nc(-c2ccccc2)nc2c1COC(C)(C)C2,inconclusive: -37.4%

row,Structure (SMILES),"activity change (PNC), negative = inhibition"
1,COCc1ccc2oc(C(=O)O)cc2c1,inconclusive: -37.3%
2,Cc1nn(-c2ccccc2)c(N)c1Sc1ccc([N+](=O)[O-])cc1,inconclusive: -50%
3,COc1ccccc1NC(=O)c1ccc(NS(C)(=O)=O)cc1,inconclusive: -63.7%
4,COc1ccc(S(=O)(=O)NCCOc2ccccc2)cc1OC,inactive: -9.26%
5,CC(C)N(Cc1nc(-c2ccc(Cl)cc2)no1)C(=O)CN(C)S(=O)(=O)c1ccc(Cl)cc1,inconclusive: -53.9%
6,c1ccc(CSc2nnc(-c3ccco3)c(-c3ccco3)n2)cc1,inconclusive: -48%
7,CCCCCCCCCCCCCCCC[n+]1cccc2ccccc21,inactive: 6.87%
8,O=C1CN(C(=O)CSc2nc(-c3ccc(Cl)cc3)cs2)c2ccccc2N1,active: -113%
9,Cc1cc(C)c2c(=O)[nH]n(C(C)C)c2n1,inconclusive: -50.6%
10,CCOC(=O)C1CCN(S(=O)(=O)c2c(C)n[nH]c2C)CC1,inconclusive: -77%
11,CC(NC(=O)COC(=O)C1CCN(S(=O)(=O)c2ccccc2C(F)(F)F)CC1)c1ccccc1 (centres undefined),active: -108%
12,CC(=O)/C(=N\Nc1ccc(C)cc1)Sc1nncn1C,inconclusive: -32%
13,CCCCCCNC(=O)CC(NS(=O)(=O)c1ccc(OC)cc1)C(C)C (centres undefined),inactive: 68.3%
14,CN(C)c1cc(C(F)(F)F)nc(-c2ccccn2)n1,inconclusive: -53.3%
15,C/C(=C\c1ccccc1)CN1CCC(C(=O)N2CCC(C)CC2)CC1,inactive: 36.3%
16,CC(C)(C)NC(=O)CN(Cc1cccs1)C(=O)c1csnn1,inactive: 4.95%
17,Cc1cc(=O)n2c(c1C#N)SC1CCCCC12O (centres undefined),inconclusive: -30.8%
18,COc1cc(S(=O)(=O)N2CCCCC2)ccc1NC(=O)c1ccc(F)cc1,inactive: 21.6%
19,O=C(Cc1ccc(F)cc1)Oc1ccc(C(=S)N2CCCC2)cc1,inactive: 17.6%
